# Results are given in words; binding and its absence hold for the method and conditions named. In cells and extracts the contact can be indirect. A result given as binding can be weak or reduced; the word gives no strength. Where a sequence is shown, tags or fusion partners need not be part of it.
# Target: T1, GFP-WT-PARP-7 (UniProt Q7Z3E1)
# T1 sequence: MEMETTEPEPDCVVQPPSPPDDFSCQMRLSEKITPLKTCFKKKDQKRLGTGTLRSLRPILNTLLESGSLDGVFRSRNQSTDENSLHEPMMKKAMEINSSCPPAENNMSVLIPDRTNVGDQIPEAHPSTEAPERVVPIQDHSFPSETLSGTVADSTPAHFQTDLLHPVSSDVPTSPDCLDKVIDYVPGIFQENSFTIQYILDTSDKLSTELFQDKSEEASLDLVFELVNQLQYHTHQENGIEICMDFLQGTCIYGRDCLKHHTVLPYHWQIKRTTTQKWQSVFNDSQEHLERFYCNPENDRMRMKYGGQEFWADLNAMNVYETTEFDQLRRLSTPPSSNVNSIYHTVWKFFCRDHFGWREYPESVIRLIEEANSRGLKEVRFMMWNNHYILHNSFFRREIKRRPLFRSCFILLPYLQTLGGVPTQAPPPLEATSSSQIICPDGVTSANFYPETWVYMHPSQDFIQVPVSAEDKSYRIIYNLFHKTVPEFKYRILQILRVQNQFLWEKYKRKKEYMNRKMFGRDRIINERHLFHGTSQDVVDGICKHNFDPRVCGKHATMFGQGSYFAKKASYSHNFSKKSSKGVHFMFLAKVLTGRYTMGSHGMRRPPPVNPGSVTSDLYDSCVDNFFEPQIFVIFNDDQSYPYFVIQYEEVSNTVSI
# Assay: co-IP; MycX2-PARP-13.2 WT or ZnF domain mutants co-expressed with GFP-PARP-7 or GFP empty vector in HEK 293T cells; GFP-PARP-7 immunoprecipitated with GFP-nanobody magnetic beads (Chromotek); Western blot for ADPr, GFP, Myc, actin
row,binding,Substance
1,binds,MycX2-PARP-13.2 CtoA ZnF 1–2 mutant (from UniProt Q7Z2W4-2)
2,binds,MycX2-PARP-13.2 CtoA ZnF 3–4 mutant (from UniProt Q7Z2W4-2)

# From publication PMC7880690, “Chemical genetics and proteome-wide site mapping reveal cysteine MARylation by PARP-7 on immune-relevant protein targets” (eLife, 2021)
